Measurements from article PMC5035731.
No constants are given. Whether binding was seen depends on the method and setting. A result given as binding can be weak or reduced; the word gives no strength. Tags and fused reporters may be left off the sequences shown.

Biological target: BY-kinase PtkA from Bacillus subtilis, Strep-tagged (Bacillus subtilis)
Test: far-Western, overlay or dot blot; 20 ug purified TkmA separated on SDS-PAGE and blotted onto PVDF; strips incubated with Strep-tagged PtkA (methods: 20 nM, 1 h, room temperature; legend: 12 uM, 2 h) alone or mixed with SalA at different molar ratios; detected with Strep-tactin HRP conjugate; both purified

binding: binds
B1: SalA, transcriptional regulator of the Mrp ATPase family, Bacillus subtilis, 6x His-tagged (protein, UniProt P50863 1-352)
chain: MIREDEVRKLVGEMREPFLQRPLGELDAVKEIKIKPEKRHISVKVALAKTGTAEQMQIQQEIVNVLKGAGAETVGLRFEELPEETVAKFRAPSAEKKTLLNMDNPPVFLAVASGKGGVGKSTVSVNLAISLARLGKKVGLIDADIYGFSVPDMMGITVRPTIEGEKLLPVERFGVKVMSMGFFVEENAPVVWRGPMLGKMLNNFFHEVEWGEVDYIVLDLPPGTGDVALDVHTMLPSCKEIIVSTPHPTAAFVAARAGSMAIKTDHEVVGVIENMAYYESAKTGEREYVFGKGGGDKLAEELNVPLLGRIPLKQPDWDKDQFAPSVYDENHPIGEIYQDIAKKIDAKMSVQV
